Reference: article PMC10369257
Results are given in words; binding and its absence hold for the method and conditions named. Binding seen in cells or lysates may run through a third protein. Some binding calls cover weakened binding; strength is not graded here.

Chains of the proteins cited; added tags and fusions are not shown.
UniProt P08183: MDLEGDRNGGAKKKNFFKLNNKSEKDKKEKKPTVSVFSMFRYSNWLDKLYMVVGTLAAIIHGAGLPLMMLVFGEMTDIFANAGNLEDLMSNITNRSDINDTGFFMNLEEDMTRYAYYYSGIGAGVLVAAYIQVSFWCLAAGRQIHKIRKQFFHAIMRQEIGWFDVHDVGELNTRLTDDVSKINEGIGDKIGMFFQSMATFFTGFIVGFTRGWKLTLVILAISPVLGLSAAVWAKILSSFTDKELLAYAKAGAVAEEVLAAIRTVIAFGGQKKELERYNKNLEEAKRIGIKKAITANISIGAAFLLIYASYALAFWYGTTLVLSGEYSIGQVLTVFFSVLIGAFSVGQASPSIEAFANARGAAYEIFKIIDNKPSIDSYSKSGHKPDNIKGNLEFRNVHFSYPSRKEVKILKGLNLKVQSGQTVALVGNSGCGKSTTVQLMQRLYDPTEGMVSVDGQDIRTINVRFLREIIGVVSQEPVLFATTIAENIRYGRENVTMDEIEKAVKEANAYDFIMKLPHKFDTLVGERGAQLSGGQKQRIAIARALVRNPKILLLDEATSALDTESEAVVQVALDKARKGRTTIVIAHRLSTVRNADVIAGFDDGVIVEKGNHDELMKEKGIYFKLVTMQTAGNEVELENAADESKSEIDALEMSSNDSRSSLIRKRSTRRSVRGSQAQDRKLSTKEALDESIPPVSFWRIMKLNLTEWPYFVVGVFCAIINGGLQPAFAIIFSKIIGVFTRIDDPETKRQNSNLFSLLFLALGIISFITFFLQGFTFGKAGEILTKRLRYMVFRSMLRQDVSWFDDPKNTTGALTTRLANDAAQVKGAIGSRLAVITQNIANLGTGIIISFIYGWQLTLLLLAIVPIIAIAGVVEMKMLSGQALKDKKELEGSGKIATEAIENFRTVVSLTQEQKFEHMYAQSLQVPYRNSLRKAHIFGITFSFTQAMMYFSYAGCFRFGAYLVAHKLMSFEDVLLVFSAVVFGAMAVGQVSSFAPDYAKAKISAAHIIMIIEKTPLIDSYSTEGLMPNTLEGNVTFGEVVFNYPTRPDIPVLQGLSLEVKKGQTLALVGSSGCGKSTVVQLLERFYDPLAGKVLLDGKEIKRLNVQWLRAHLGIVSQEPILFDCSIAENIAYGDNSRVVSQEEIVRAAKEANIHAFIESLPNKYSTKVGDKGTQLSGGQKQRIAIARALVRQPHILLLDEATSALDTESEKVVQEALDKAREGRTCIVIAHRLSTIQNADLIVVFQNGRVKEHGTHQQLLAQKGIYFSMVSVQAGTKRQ
UniProt Q03135: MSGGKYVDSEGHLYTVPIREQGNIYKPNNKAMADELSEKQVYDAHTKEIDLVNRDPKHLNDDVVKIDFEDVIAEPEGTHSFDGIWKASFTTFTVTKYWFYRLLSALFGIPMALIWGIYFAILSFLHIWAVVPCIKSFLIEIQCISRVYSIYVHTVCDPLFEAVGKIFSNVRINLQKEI

Molecular target: P-glycoprotein (human (endogenous in 5637)) (UniProt P08183)
Experiment: co-IP; endogenous P-gp immunoprecipitated from 5637-GEM cells (LIST knockdown, c-Src knockdown or c-Src inhibitor dasatinib), immunoblotting for Cav1

binding: binds
Substance: Cav1 (from UniProt Q03135 1-178)
